The target in assay [1] is GST-tagged WRN-R2 recombinant protein (human) (UniProt Q14191). In words: pull-down; bead-conjugated GST-WRN-R1 or GST-WRN-R2 incubated with GFP-lamin A- or GFP-progerin-transfected HEK293 cell lysate for 1 h at room temperature, washed once with PBS; western blot with anti-GFP and anti-GST; only the target purified. In general terms: In western blotting, separated proteins are transferred to a membrane and probed.

Amino acid sequences for entries named in this document (tags omitted). A change or cut given only in a name is not applied to a line headed by its entry. Chains listed by the source or under a name are the forms on record and can include a tag or linker. Residues count along the entry.
UniProt Q14191: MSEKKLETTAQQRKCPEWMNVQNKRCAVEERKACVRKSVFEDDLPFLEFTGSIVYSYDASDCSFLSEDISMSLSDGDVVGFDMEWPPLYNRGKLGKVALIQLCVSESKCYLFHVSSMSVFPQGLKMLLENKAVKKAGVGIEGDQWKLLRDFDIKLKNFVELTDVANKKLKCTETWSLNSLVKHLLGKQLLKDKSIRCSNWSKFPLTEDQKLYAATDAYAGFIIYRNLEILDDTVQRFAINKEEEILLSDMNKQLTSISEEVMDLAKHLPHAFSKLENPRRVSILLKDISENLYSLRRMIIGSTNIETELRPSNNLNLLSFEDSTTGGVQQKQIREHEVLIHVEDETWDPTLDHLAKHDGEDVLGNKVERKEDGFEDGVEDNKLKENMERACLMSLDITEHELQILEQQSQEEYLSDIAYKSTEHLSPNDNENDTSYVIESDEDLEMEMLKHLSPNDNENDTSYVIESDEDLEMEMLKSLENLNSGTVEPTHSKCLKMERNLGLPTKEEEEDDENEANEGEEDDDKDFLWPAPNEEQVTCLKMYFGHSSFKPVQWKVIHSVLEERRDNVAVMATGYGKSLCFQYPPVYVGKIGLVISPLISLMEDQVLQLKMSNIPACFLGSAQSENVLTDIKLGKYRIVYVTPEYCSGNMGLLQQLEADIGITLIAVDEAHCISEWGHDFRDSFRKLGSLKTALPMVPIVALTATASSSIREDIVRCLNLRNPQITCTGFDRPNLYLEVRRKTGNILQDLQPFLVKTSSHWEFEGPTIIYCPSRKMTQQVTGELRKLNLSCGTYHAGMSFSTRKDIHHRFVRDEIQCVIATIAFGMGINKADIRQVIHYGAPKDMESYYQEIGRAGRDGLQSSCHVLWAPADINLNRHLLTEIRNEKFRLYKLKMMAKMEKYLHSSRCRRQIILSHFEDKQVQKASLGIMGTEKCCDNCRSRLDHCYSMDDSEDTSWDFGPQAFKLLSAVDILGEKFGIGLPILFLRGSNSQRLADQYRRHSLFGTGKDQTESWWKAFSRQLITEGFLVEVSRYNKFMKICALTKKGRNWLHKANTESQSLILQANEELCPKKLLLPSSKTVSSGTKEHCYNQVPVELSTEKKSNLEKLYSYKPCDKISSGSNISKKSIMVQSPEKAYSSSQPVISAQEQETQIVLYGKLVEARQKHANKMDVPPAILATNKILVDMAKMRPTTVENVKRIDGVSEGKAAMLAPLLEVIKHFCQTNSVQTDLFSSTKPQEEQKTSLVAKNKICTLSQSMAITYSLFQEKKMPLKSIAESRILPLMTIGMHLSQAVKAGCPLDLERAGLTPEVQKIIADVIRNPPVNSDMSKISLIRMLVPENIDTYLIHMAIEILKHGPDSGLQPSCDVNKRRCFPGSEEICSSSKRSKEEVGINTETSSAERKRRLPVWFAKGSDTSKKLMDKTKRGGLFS
GST-tagged WRN-R2 recombinant protein: residues 424-476 of Q14191
wild-type lamin A (endogenous) (P02545, residues 1-646): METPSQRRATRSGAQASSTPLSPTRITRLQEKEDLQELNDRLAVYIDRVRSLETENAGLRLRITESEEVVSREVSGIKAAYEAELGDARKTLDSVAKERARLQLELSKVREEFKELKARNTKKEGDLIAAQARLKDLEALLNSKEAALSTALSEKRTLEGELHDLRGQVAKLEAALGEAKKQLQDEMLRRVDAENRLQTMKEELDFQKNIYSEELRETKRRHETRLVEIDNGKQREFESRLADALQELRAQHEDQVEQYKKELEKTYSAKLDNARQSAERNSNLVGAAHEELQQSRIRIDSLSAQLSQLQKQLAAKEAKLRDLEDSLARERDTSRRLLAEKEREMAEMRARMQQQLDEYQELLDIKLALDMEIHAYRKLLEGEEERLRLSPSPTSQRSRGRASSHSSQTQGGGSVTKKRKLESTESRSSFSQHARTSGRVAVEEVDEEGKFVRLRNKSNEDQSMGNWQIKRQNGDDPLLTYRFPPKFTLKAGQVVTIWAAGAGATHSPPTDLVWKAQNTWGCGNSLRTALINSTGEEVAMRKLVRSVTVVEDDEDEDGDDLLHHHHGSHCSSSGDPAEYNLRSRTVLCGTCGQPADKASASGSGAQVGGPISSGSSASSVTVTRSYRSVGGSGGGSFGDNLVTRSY
progerin (endogenous) (P02545-6, form named): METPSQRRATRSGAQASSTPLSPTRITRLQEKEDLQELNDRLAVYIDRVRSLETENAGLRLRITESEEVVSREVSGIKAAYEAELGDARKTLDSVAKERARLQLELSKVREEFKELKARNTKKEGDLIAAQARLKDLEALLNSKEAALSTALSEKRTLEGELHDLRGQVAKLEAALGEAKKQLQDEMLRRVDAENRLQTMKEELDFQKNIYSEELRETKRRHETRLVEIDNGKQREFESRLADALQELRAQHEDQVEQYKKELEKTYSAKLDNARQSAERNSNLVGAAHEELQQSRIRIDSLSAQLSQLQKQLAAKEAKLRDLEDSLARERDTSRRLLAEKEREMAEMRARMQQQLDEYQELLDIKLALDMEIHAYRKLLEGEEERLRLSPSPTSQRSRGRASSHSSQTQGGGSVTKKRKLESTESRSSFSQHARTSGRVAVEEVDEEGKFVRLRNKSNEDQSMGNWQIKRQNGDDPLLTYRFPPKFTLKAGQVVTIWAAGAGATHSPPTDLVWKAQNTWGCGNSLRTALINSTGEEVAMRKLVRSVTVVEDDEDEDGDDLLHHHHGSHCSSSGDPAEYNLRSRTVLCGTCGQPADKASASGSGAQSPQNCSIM

Assay [2] deals with WRN protein (endogenous) (human (endogenous in whole-cell lysates; all cell lines of the paper are human)) (UniProt Q14191). Briefly: co-IP; endogenous IP: whole-cell lysates with anti-WRN antibody at 4 °C for 2 h, protein A/G agarose beads at 4 °C for 1 h, washed with RIPA buffer, western blot.

Our source for the binding values is article PMC8079706.

These are yes or no findings as the source states them, for the method shown. Binding seen in cells or lysates may run through a third protein. Some entries that bind do so weakly or less than the wild type.

“GFP-fused progerin (from UniProt P02545-6 1-614)”: the binding entry in assay [1] was “binds”. Consider “progerin (endogenous) (from UniProt P02545-6 1-614)”, for which the binding entry in assay [2] is listed as “binds”. Same read-out and setting: in the case of “wild-type lamin A (endogenous) (from UniProt P02545 1-646)” it was “binds”.
